For test [1], the target named is Mannan-binding lectin (MBL) (UniProt P11226). Briefly: ELISA. Background: In an ELISA, binding on a coated surface is turned into a signal by an enzyme label.
For test [2], the target named is Flag-tagged full-length MASP-2 (human) (UniProt O00187). Kind of test: co-IP.

Amino acid sequences for entries named in this document (tags omitted). Residues count along the entry.
UniProt P11226, residues 21-248: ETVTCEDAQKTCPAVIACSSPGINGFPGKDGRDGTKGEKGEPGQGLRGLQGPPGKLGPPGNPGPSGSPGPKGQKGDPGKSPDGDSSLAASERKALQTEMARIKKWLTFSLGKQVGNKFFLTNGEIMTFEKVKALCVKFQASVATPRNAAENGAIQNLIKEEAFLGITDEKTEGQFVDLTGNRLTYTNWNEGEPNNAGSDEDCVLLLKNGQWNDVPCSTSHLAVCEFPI
UniProt O00187, residues 16-686: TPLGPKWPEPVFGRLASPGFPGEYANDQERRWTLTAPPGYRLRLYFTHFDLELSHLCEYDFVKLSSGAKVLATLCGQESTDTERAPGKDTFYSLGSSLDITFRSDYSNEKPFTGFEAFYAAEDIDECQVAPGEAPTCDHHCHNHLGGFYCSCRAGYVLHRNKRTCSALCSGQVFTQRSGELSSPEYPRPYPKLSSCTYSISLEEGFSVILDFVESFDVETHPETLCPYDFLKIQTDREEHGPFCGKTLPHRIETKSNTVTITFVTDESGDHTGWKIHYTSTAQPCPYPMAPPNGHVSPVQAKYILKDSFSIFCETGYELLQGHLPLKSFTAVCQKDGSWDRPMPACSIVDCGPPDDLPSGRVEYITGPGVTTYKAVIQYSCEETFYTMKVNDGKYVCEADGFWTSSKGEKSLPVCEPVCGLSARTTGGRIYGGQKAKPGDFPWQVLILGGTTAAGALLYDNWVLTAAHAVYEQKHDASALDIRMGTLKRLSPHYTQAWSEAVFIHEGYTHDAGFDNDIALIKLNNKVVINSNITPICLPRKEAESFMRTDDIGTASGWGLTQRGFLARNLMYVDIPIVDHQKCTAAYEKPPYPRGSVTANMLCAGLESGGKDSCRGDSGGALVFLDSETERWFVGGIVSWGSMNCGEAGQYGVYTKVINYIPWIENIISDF

These are yes or no findings as the source states them, for the method shown. For some assays here: In cells and extracts the contact can be indirect. Some results given as binding are weak or reduced against the parent protein; the word gives no strength.

“Purified recombinant MASP-2 (pET22b-MASP-2, renatured) (from UniProt O00187) (enzyme)”: the binding result in test [1] is given as “binds”.

For the substance “Flag-tagged full-length MASP-2 (from UniProt O00187) (enzyme)”, in test [2], the binding entry is “binds”.

Values taken from paper doi:10.1101/2020.03.29.20041962.
